Part of at least one peptide drawing is inferred or uncertain, most often the ends.
Target: T1, PSMA (Homo sapiens, UniProt Q04609)
T1 construct: endogenous in cells; host or cells: LNCaP human prostate cancer cells, homogenized cell membranes
Assay: NAALADase assay with LNCaP homogenized cell membranes and [N-acetyl aspartyl ^3H-glutamate]
Format: binding
Details: LNCaP homogenized cell membranes, listed as [DUPA-6-Ahx-Lys(DOTA)-6-Ahx-RM2], read-out: IC50 LNCaP cells
Description: (NAAG) as the radioligands. […] After incubation, the reaction medium was aspirated and the cells were rinsed three times with cold media. Cell-associated radioactivity was determined using a Packard Riastar gamma counter. […] The enzymatic reaction was stopped by addition of 50 μL of cold sodium phosphate buffer (0.1 M, pH=7.4). […] Scintillation cocktail was added to each fraction and the amount of radioactivity in each was determined by liquid scintillation counting.
(NAAG) as the radioligands. […] After incubation, the reaction medium was aspirated and the cells were rinsed three times with cold media. Cell-associated radioactivity was determined using a Packard Riastar gamma counter. […] For the PSMA-positive assay, the binding affinity was measured using the N-acetylated-α-linked acidic dipeptidase (NAALADase) assay. […] The enzymatic reaction was stopped by addition of 50 μL of cold sodium phosphate buffer (0.1 M, pH=7.4). […] Columns were pre-equilibrated with 0.2 M HCl prior to loading of the reaction mixture. […] Scintillation cocktail was added to each fraction and the amount of radioactivity in each was determined by liquid scintillation counting.

Protein sequences, listed by entry. Tags and fused reporters are not part of them.
UniProt Q04609, whole entry: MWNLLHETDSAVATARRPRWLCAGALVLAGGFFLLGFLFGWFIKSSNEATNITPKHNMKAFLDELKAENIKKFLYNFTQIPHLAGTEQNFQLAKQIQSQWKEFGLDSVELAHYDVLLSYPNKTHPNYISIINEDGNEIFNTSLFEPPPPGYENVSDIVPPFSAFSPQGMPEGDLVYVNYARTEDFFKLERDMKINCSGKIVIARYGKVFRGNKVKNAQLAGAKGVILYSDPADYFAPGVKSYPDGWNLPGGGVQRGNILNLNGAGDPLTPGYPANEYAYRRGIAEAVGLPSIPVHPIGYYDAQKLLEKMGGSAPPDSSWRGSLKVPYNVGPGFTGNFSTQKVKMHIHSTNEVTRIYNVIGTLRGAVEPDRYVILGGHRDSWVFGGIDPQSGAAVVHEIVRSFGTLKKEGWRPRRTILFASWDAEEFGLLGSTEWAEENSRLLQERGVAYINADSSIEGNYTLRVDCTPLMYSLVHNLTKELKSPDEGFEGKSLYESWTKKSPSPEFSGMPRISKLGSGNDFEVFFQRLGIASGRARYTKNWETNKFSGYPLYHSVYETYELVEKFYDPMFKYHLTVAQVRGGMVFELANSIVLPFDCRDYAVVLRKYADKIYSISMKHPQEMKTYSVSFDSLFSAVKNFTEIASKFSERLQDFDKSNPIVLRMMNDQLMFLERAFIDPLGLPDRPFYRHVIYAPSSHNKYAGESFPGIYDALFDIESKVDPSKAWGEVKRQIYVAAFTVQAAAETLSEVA

## CC(C)C[C@H](NC(=O)C[C@H](O)[C@H](CC(C)C)NC(=O)[C@H](Cc1c[nH]cn1)NC(=O)CNC(=O)[C@@H](NC(=O)[C@H](C)NC(=O)[C@H](Cc1c[nH]c2ccccc12)NC(=O)[C@H](CCC(N)=O)NC(=O)[C@@H](Cc1ccccc1)NC(=O)CCCCCNC(=O)[C@H](CCCCNC(=O)CN1CCN(CC(=O)O)CCN(CC(=O)O)CCN(CC(=O)O)CC1)NC(=O)CCCCCNC(=O)CC[C@H](NC(=O)N[C@@H](CCC(=O)O)C(=O)O)C(=O)O)C(C)C)C(N)=O [[DUPA-6-Ahx-[DOTA]-6-Ahx-RM2]] [[DUPA-6-Ahx-Lys(DOTA)-6-Ahx-RM2]]
  IC50: 9.3 ± 2.32 nM
